Tested on: mice
Assay: 55° C. warm-water tail withdrawal (tail-flick) assay
Type: in vivo, mouse
Conditions: intraperitoneal dose 10 mg/kg; AUC not further defined
Protocol: Antinociceptive effect was tested in a mouse tail-withdrawal (“tail-flick,” Aldrich et al. 2009) assay in which the tail of a restrained mouse is exposed to water at 55° C. […] Durations shorter than the maximum are reported as a percentage of the time limit. This tail-flick test (also known as the 55° C. warm-water tail withdrawal assay) is an industry acceptable, nonclinical model for assessing the efficacy of analgesics in treating acute pain. To test placebo effect, FDKP (TECHNOSPHERE®) powder (0.5 mg) without any peptide was used in the study. Each animal is tested for baseline tail-withdrawal latency prior to drug administration. Latency to withdraw the tail was subsequently measured in 10 minutes post-drug administration intervals as indicated. A maximum response time of 15 seconds was utilized to prevent tissue damage. Data reported as percent antinociception, as calculated by the following equation: % antinociception is equal to 100 times (test latency minus baseline latency) divided by (15 minus baseline latency).
The tetrapetide, (D)Phe-(D)Phe-(D)Nle-(D)Arg-NH2 (SEQ ID NO: 2, Compound 2) was administered to mice by intraperitoneal (i.p.) injection (3 mg/kg) in a saline solution, and by pulmonary insufflation of a dry powder formulation containing FDKP at various doses, 0.25 mg, 0.125 mg, 0.013 mg, 1.25 μg and 0.13 μg. […]

Q: How did the AUC turn out when CN1CC[C@]23c4c5ccc(O)c4O[C@H]2[C@@H](O)C=C[C@H]3[C@H]1C5 [morphine, reference compound] was run?
A: 6795
